# About 22,000 (6.9%) of roughly 320,000 compounds were called active. This list was built around the results that the source calls inconclusive (neither active nor inactive); the mix of calls is not that of the screen. Calls follow the shape of the dose curve; as a rule, active = well fitted inhibition curve with a large enough effect; inconclusive = small, poorly fitted or top-dose-only effect, or another doubt; inactive = no such curve, though single readings can be large or run the other way. Potencies of inconclusive entries are doubtful fits and often do not repeat.
# Experiment: Primary qHTS for delayed death inhibitors of the malarial parasite plastid, 96 hour incubation
# Details: P. falciparum luciferase reporter growth; series mostly up to 28.7 µM
# Summary of the method: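 Parasite growth measured via integrated firefly luciferase reporter in P. falciparum. Infected erythrocytes at 2% hematocrit, 0.05% parasitemia final were treated 96 hours at 37 C under 5% CO2, and luminescence was read.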
# Potency is read from the fitted curve at half-maximal effect.
row,Compound,Potency
1,Cc1ccc(C)c(N2CCN(C(=O)c3ccc(N4CCCC4=O)cc3)CC2)c1,"inconclusive: 10.4 µM [inhibitor, partial curve, poor fit]"
2,CSCC(C)N1CCC(N2CCC(C(=O)NCc3ccccn3)CC2)CC1 (centres undefined),inactive
3,CCOc1cc(/C=N/NC(=O)Cc2ccc(C(F)(F)F)cc2[N+](=O)[O-])ccc1O,inactive
4,O=[N+]([O-])c1cccc(-c2nnc3ccccn23)c1,"inconclusive: 4.15 µM [inhibitor, single point]"
5,Cc1cc(Cl)ccc1OCC(=O)NCC(=O)N/N=C/c1ccco1,inactive
6,CCOC(=O)C1CCCN(C(=O)CCNS(=O)(=O)c2ccc(Br)cc2)C1 (centres undefined),"inconclusive: 18.5 µM [inhibitor, single point]"
7,C=CCOc1c2ccc(C(=O)NCc3ccc(OC)cc3)cc2nn1C,"inconclusive: 0.465 µM [inhibitor, full curve, poor fit]"
8,Cc1ccn(CC(=O)N2CCCC(N3CCN(c4ccccc4F)CC3)C2)n1 (centres undefined),active: 13.1 µM
9,CN(Cc1cccc(F)c1)C(=O)c1ccc(S(=O)(=O)N2CCOCC2)cc1,inactive
10,CCN(CC)C(=O)CSc1nnc(-c2ccc(S(=O)(=O)N3CCOCC3)cc2)n1C,inactive
11,COc1ccc(S(=O)(=O)N2CCC3(CC2)OCCN3S(=O)(=O)c2ccc(C)cc2)cc1OC,inactive
12,CNS(=O)(=O)c1cc(-c2nnc(Nc3ccc(NC(C)=O)cc3)c3ccccc23)ccc1C,"inconclusive: 18.5 µM [inhibitor, single point]"
13,CN(Cc1nc2ccccc2c(=O)[nH]1)C(=O)c1cccc(S(=O)(=O)N2CCCCCC2)c1,"inconclusive: 8.28 µM [inhibitor, partial curve, poor fit]"
14,CCOC(=O)NC(=O)c1cn(C(CC)CO)c(=O)[nH]c1=O (centres undefined),"inconclusive: 14.7 µM [inhibitor, single point]"
15,S=C(NCCCN1CCOCC1)Nc1ccc(-c2nc3ccccc3[nH]2)cc1,"inconclusive: 11.7 µM [inhibitor, single point]"
16,CCCNC(=O)c1ccc2nc(-c3ccccc3)c(-c3ccccc3)nc2c1,"inconclusive: 4.65 µM [inhibitor, partial curve]"
17,COc1ccc(/C=C/C(=O)Nc2ccc(OC)nc2)cc1,"inconclusive: 11.7 µM [inhibitor, partial curve, poor fit]"
18,CC(=O)/C(=N\Nc1ccccc1Cl)Sc1nnc(-c2ccccc2)n1-c1ccccc1,"inconclusive: 18.5 µM [inhibitor, single point]"
19,NNCc1cccc(O)c1,"inconclusive: 18.5 µM [inhibitor, single point]"
20,CCSCCOC(=O)C1=C(C)NC(=O)NC1c1ccccc1 (centres undefined),inactive
21,Cc1nnc(SCc2cc(=O)[nH]c(=S)[nH]2)s1,"inconclusive: 13.1 µM [inhibitor, partial curve, poor fit]"
22,CC(=O)NCCNC(=O)c1cccc(NS(=O)(=O)c2ccc3c(c2)OCCO3)c1,inactive

# Two successive entries out of the list so far:
row,Compound,Potency
12,CNS(=O)(=O)c1cc(-c2nnc(Nc3ccc(NC(C)=O)cc3)c3ccccc23)ccc1C,"inconclusive: 18.5 µM [inhibitor, single point]"
13,CN(Cc1nc2ccccc2c(=O)[nH]1)C(=O)c1cccc(S(=O)(=O)N2CCCCCC2)c1,"inconclusive: 8.28 µM [inhibitor, partial curve, poor fit]"

# Remaining list, next part.

row,Compound,Potency
1,Cc1cc(OCC(=O)Nc2cc(-c3nn4c(C)nnc4s3)ccc2C)ccc1Cl,"inconclusive: 18.5 µM [inhibitor, single point]"
2,O=C(C1CCC(CNS(=O)(=O)c2ccccc2)CC1)N1CCCCC1 (centres undefined),"inconclusive: 14.7 µM [inhibitor, single point]"
3,CC(OC(=O)CN1C(=O)COc2ccccc21)C(=O)NCc1ccc(F)cc1 (centres undefined),"inconclusive: 13.1 µM [inhibitor, single point]"
4,Cc1ccc(-c2nnc(NCc3nc4ccccc4[nH]3)c3ccccc23)cc1S(=O)(=O)N1CCOCC1,active: 2.62 µM
5,CC(C)C[C@H](NC(=O)c1nc[nH]c1C(=O)NCCCCCNC(=O)OC(C)(C)C)C(=O)OCc1ccccc1,active: 9.28 µM
6,O=C1CC2(CCN(C(=O)c3ccc(Cl)cc3)CC2)Oc2ccccc21,"inconclusive: 18.5 µM [inhibitor, single point]"
7,CCOC(=O)c1cccc(NC(=O)C2CCN(c3ncnc4c3nc3n4CCCCC3)CC2)c1,active: 10.4 µM
8,O=C(CO/N=C/c1ccccc1)N1c2ccccc2Oc2ccccc21,"inconclusive: 10.4 µM [inhibitor, partial curve, poor fit]"
9,CC(C)NC(=O)c1cnc(Sc2ncc(C(F)(F)F)cc2Cl)n1C,inactive
10,CN1/C(=C\C(=S)NC(=O)c2ccccc2Cl)C(C)(C)c2ccccc21,"inconclusive: 14.7 µM [inhibitor, single point]"
11,COc1cc(C(=O)NNC(=O)COc2cccc(F)c2)ccc1OCC(=O)N1CCOCC1,inactive
12,C/C(=N\Nc1ccc(C(=O)O)cc1)c1ccc(Cl)s1,"inconclusive: 7.38 µM [inhibitor, partial curve, poor fit]"
13,C=CCNC(=O)c1sc(=S)n(-c2ccc(C(=O)OCC)cc2)c1N,active: 2.94 µM
14,COC(=O)c1sccc1-n1cccc1C(=O)NCc1ccccc1,"inconclusive: 0.828 µM [inhibitor, full curve]"
15,O=C(O)c1cccc(-c2noc(-c3ccccc3F)n2)c1,"inconclusive: 0.239 µM [inhibitor, full curve, poor fit]"
16,CCOC(=O)C1CCN(C(=O)CCn2c(=O)c3cccn3c3cccnc32)CC1,"inconclusive: 18.5 µM [inhibitor, single point]"
17,CCN1C(=O)c2ccccc2S(=O)(=O)c2ccc(C(=O)NCCCN(CC(C)C)CC(C)C)cc21,inactive
18,Cc1ccc(Nc2nc(-c3ccccc3)c(CC(=O)O)s2)cc1,"inconclusive: 9.28 µM [inhibitor, single point]"
19,COc1ccccc1-n1cnc2cc(NS(=O)(=O)c3ccc(Br)cc3)ccc21,active: 5.22 µM
20,CN(C1CCCCC1)S(=O)(=O)c1ccc2c(c1)c(=O)c(C(=O)NCCN1CCCC1)cn2C,"inconclusive: 11.7 µM [inhibitor, single point]"
21,COC(=O)c1cc(OCC(=O)NC2CCCc3ccccc32)cc(C(=O)OC)c1 (centres undefined),inactive
22,O=C(CN1C(=O)NC2(CCCC2)C1=O)N1CCN(S(=O)(=O)c2ccccc2F)CC1,inactive

# From PubChem BioAssay AID504834 (National Center for Advancing Translational Sciences (NCATS), 2011)
